{"source": "paper PMC7054317", "about": "“Mammalian ALKBH1 serves as an N^6-mA demethylase of unpairing DNA” (Cell Research, 2020)", "target": "T1, ALKBH1 20-355 crosslinking mutant S235C,C129S,C300S,C304S,C322S (mouse) (UniProt P0CB42)", "T1 sequence (looked up)": "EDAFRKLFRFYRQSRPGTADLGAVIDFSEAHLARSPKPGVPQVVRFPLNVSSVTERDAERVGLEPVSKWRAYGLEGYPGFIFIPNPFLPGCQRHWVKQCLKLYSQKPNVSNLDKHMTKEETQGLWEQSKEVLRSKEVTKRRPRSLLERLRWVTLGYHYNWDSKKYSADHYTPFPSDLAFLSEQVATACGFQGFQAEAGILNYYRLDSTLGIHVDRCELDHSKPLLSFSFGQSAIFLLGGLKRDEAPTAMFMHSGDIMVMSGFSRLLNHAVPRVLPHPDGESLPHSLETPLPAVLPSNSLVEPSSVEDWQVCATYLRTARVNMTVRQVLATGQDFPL", "experiment": "crystal structure (2.4 A)", "conditions": "disulfide cross-linked via S235C, crystallized with MnCl2 and NOG/succinic acid; disulfide-modified cytosine (C*) in the bulge, position 10 of strand 1 (mark follows it); recombinant protein; residues 20-355; protein details: His-tag removed by PreScission", "note": "Construct, isoform or probe ends are uncertain for at least one entry. Protein sequences can lack the tags named with them.", "data": [{"sequence": "GCTGAGTGCCCGCGTGCTGGATCC / GGATCCAGCACGCCACTCAGC [21_bulge3]", "values": [{"measurement": "binding result", "value": "binds"}]}]}
